Data as given in PubChem BioAssay AID743121 (NCATS, 2013)
Here is an unselected part of about 26,000 reagents. Over the whole deposit, 167 (0.63%) got an active call. 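Calls are per gene from RSA p-values that are not deposited; an individual active-marked siRNA can sensitise only weakly.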 Unmarked entries are inactive. The numbers tell different reagents against one gene apart. Not all columns of the deposit are shown.

Assay: 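Partners whose loss is lethal together with topoisomerase I blockade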 (primary screen)
Cells: MDA-MB-231 cells, a human breast cancer line
Reagent: single siRNA against human genes, 20 nM siRNA (0.8 pmol per well)
Duration: 120 h (drug added 48 h after transfection, read 72 h later)
Treatment: camptothecin 20 nM (about EC30) for 72 h; vehicle 0.1% DMSO in parallel plates
Measurement: 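Cell viability by ATP luminescence (CellTiter-Glo) as % of non-targeting siRNA wells, and the log2 ratio of viability without drug over viability with camptothecin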
Scale: log2 vehicle/camptothecin viability: higher = stronger sensitisation to camptothecin; viability with camptothecin: higher = more viable cells
Units: viability with camptothecin in % of control
Call rule: 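Active genes have an RSA gene-level p-value below 0.001, computed from the ratios of their separate siRNAs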

RPS6KA4 #1
- log2 vehicle/camptothecin viability: 0.687
- viability with camptothecin: 57.6

RPS6KA4 #2
- log2 vehicle/camptothecin viability: -0.116
- viability with camptothecin: 101

RPS6KA4 #3
- log2 vehicle/camptothecin viability: -0.418
- viability with camptothecin: 119

RPS6KA4 #4
- log2 vehicle/camptothecin viability: -0.482
- viability with camptothecin: 102

TNFRSF10C #1
- log2 vehicle/camptothecin viability: -0.41
- viability with camptothecin: 108

TNFRSF10C #2
- log2 vehicle/camptothecin viability: -0.153
- viability with camptothecin: 89.7

TNFRSF10C #3
- log2 vehicle/camptothecin viability: -0.0595
- viability with camptothecin: 97.3

TNFRSF10C #4
- log2 vehicle/camptothecin viability: -0.34
- viability with camptothecin: 79.2

PTPMT1 #1
- log2 vehicle/camptothecin viability: -0.0936
- viability with camptothecin: 22.5

PTPMT1 #2
- log2 vehicle/camptothecin viability: 0.353
- viability with camptothecin: 55.5

PTPMT1 #3
- log2 vehicle/camptothecin viability: -0.505
- viability with camptothecin: 91.4

PTPMT1 #4
- log2 vehicle/camptothecin viability: -0.232
- viability with camptothecin: 6.84

RING1 #1
- log2 vehicle/camptothecin viability: -0.529
- viability with camptothecin: 51

RING1 #2
- log2 vehicle/camptothecin viability: 0.236
- viability with camptothecin: 34.4

RING1 #3
- log2 vehicle/camptothecin viability: 0.19
- viability with camptothecin: 3.37

RING1 #4
- log2 vehicle/camptothecin viability: -0.376
- viability with camptothecin: 117

CCS #1
- log2 vehicle/camptothecin viability: -0.138
- viability with camptothecin: 87.6

CCS #2
- log2 vehicle/camptothecin viability: 0.109
- viability with camptothecin: 102

CCS #3
- log2 vehicle/camptothecin viability: -0.358
- viability with camptothecin: 87.3

CCS #4
- log2 vehicle/camptothecin viability: -0.243
- viability with camptothecin: 67.7

KIDINS220 #1
- log2 vehicle/camptothecin viability: -0.177
- viability with camptothecin: 130

KIDINS220 #2
- log2 vehicle/camptothecin viability: -0.15
- viability with camptothecin: 35.7

KIDINS220 #3
- log2 vehicle/camptothecin viability: -0.0342
- viability with camptothecin: 104

KIDINS220 #4
- log2 vehicle/camptothecin viability: -0.329
- viability with camptothecin: 115

SERPINB4 #1
- log2 vehicle/camptothecin viability: 0.106
- viability with camptothecin: 85.2

SERPINB4 #2
- log2 vehicle/camptothecin viability: 0.0493
- viability with camptothecin: 22

SERPINB4 #3
- log2 vehicle/camptothecin viability: 0.327
- viability with camptothecin: 69.9

CNGA1 #1
- log2 vehicle/camptothecin viability: -0.0391
- viability with camptothecin: 88.8

CNGA1 #2
- log2 vehicle/camptothecin viability: 0.0769
- viability with camptothecin: 94.3

CNGA1 #3
- log2 vehicle/camptothecin viability: -0.174
- viability with camptothecin: 83

CNGA1 #4
- log2 vehicle/camptothecin viability: -0.252
- viability with camptothecin: 84.5

PARD6A #1
- log2 vehicle/camptothecin viability: -0.258
- viability with camptothecin: 77.6

PARD6A #2
- log2 vehicle/camptothecin viability: -0.123
- viability with camptothecin: 106

PARD6A #3
- log2 vehicle/camptothecin viability: 0.0562
- viability with camptothecin: 95.7

PARD6A #4
- log2 vehicle/camptothecin viability: -0.227
- viability with camptothecin: 85.8
